In patent US20040081659A1 (Merck & Co., Inc., priority 1997, published 2004):

Assay: general procedure: Fmoc solid-phase peptide synthesis; Fmoc-Ser(t-Bu)-WANG resin loaded at 0.82 mmol/g; DCC and HOBt
Conditions: conjugation step, HPLC system A, acetate salt

In the case of “des-Acetylvinblastine-4-O-(N-Acetyl-4-trans-L-Hyp-Ser-Ser-Chg-Gln-Ser-Ser-Pro) ester acetate”, the “final HPLC purity” value is reported as 98.9% pure.
